# Reference: PubChem BioAssay AID330 (DTP/NCI, 2004)
# The list does not hold the whole screen: it is rich in T/C values a quarter to a half above the control, in often repeated tests (any T/C) and in doses without a T/C. Further doses and runs are listed elsewhere. T/C: endpoint of the treated group in % of that of the vehicle group. Some entries give survivors of the animals treated and no T/C: the source files T/C as zero there, which appears to mark a toxic dose or a test without result, not a measured value. Some survivor counts are full or nearly so, which does not show that the dose was tolerated: survival well below the control is almost never listed, so the zero probably covers shortened survival too. Survivors were counted at the toxicity check, usually on the fifth day, unless a day is given; later deaths do not show. Schedule codes are those of the source, taken here to give the interval after Q, in days (D) or hours (H), and the number of doses after X. Some entries were tested several times; the results are listed from low to high. Where survival is the endpoint, this PubChem deposit counts one and a half times the control or more as active, and values a quarter to a half above the control carry no call in these data; other NCI protocols may use other cut-offs. Some T/C values carry the count of animals alive at the toxicity check (mostly the fifth day); without a count, all were alive then. Marks such as (2×) count equal records among those shown.
# Test system: P388 leukemia ip, CD2F1 mice, survival T/C
# Assay: NCI In Vivo Anticancer Drug Screen. Data for tumor model P388 Leukemia (intraperitoneal) in CD2F1 (CDF1) mice
# Conditions: T/C endpoint: median survival time, higher T/C = longer survival
# [1] = dose: 6.25 mg/kg/injection, schedule: Q01DX005 (ip), vehicle: Klucel (hydroxypropylcellulose) (HPC)
# [2] = dose: 12.5 mg/kg/injection, schedule: Q01DX005 (ip), vehicle: Klucel (hydroxypropylcellulose) (HPC)
# [3] = dose: 25.0 mg/kg/injection, schedule: Q01DX005 (ip), vehicle: Klucel (hydroxypropylcellulose) (HPC)
# [4] = dose: 50.0 mg/kg/injection, schedule: Q01DX005 (ip), vehicle: Klucel (hydroxypropylcellulose) (HPC)
# [5] = dose: 100.0 mg/kg/injection, schedule: Q01DX005 (ip), vehicle: Klucel (hydroxypropylcellulose) (HPC)
# [6] = dose: 200.0 mg/kg/injection, schedule: Q01DX005 (ip), vehicle: Klucel (hydroxypropylcellulose) (HPC)
# [7] = dose: 400.0 mg/kg/injection, schedule: Q01DX009 (ip), vehicle: saline with Tween-80
# [8] = dose: 100.0 mg/kg/injection, schedule: Q01DX009 (ip), vehicle: saline with Tween-80
# [9] = dose: 200.0 mg/kg/injection, schedule: Q01DX009 (ip), vehicle: saline with Tween-80
# [10] = dose: 100.0 mg/kg/injection, schedule: Q01DX009 (ip), vehicle: other
# [11] = dose: 100.0 mg/kg/injection, schedule: Q04DX003 (ip), vehicle: distilled water + Tween-80
# [12] = dose: 200.0 mg/kg/injection, schedule: Q04DX003 (ip), vehicle: distilled water + Tween-80
# [13] = dose: 200.0 mg/kg/injection, schedule: Q04DX003 (ip), vehicle: water
smiles,measurement,setting,value
C[CH2][Sn]([O][Sn]([Cl])([CH2]C)[c]1ccccc1)[c]1ccccc1 (centres undefined),T/C,[1],125 % of control
same,T/C,[2],138 % of control [4 of 6 alive]
same,T/C,[3],126 % of control [5 of 6 alive]
same,survivor count,[3],0 of 6
same,survivor count,[4],0 of 6
same,survivor count,[5],0 of 6
same,survivor count,[6],0 of 6
[N-]=[N+]=CC(=O)CCC(NC(=O)OCc1ccccc1)C(=O)OCc1ccccc1 (centres undefined),survivor count,[3],7 of 10
same,T/C,[4],"112, 147, 151 % of control"
same,survivor count,[4],9 of 10
same,T/C,[5],"136, 143, 156, 168 % of control"
same,survivor count,[5],1 of 10
same,T/C,"dose: 167.0 mg/kg/injection, schedule: Q01DX005 (ip), vehicle: Klucel (hydroxypropylcellulose) (HPC)",145 % of control
same,T/C,[6],121 % of control
same,survivor count,[6],"0 of 10, 5 of 6, 6 of 6"
CC(=O)C1=C(O)C(CC(C)C)NC1=O (centres undefined),survivor count,[6],3 of 6
OC(CN1CCCC2CCCCC21)c1cc2ccccc2c2ccccc12 (centres undefined),survivor count,[7],6 of 6
COC(=O)Nc1nc2cc(Cl)c(Cl)cc2[nH]1,T/C,[8],128 and 135 % of control
same,T/C,[9],135 and 138 % of control
same,T/C,[7],141 and 143 % of control
same,T/C,"dose: 600.0 mg/kg/injection, schedule: Q01DX009 (ip), vehicle: saline with Tween-80",141 % of control
O=S(=O)(O)C1=CC(=N/Br)/C=CC/1=N\Br,T/C,"dose: 50.0 mg/kg/injection, schedule: Q01DX005 (ip), vehicle: saline",127 % of control
same,T/C,"dose: 100.0 mg/kg/injection, schedule: Q01DX005 (ip), vehicle: saline",129 % of control
same,T/C,"dose: 200.0 mg/kg/injection, schedule: Q01DX005 (ip), vehicle: saline",127 % of control
same,survivor count,"dose: 400.0 mg/kg/injection, schedule: Q01DX005 (ip), vehicle: saline",0 of 5 and 4 of 6
CCCCNC(=S)NNc1nc(N(CC)CC)nc(N(CC)CC)n1,survivor count,"dose: 400.0 mg/kg/injection, schedule: Q04DX002 (ip), vehicle: saline with Tween-80",5 of 6
COc1cc(/C=C2\SC(=S)N(CCCN3CCOCC3)C2=O)ccc1O,survivor count,[8],6 of 6
same,survivor count,[9],6 of 6
COc1ccc2[nH]c3c(C)c4cc[n+](CCCCCCCC[n+]5ccc6c(C)c7[nH]c8ccc(OC)cc8c7c(C)c6c5)cc4c(C)c3c2c1,T/C,"dose: 1.56 mg/kg/injection, schedule: Q04DX003 (ip), vehicle: other",126 % of control
same,T/C,"dose: 3.13 mg/kg/injection, schedule: Q04DX003 (ip), vehicle: other",126 % of control
same,T/C,"dose: 6.25 mg/kg/injection, schedule: Q04DX003 (ip), vehicle: other",126 % of control
same,T/C,"dose: 12.5 mg/kg/injection, schedule: Q04DX003 (ip), vehicle: other",132 % of control
COc1cc2cc3c4cc(OC)c(OC)cc4cc[n+]3c(C)c2cc1OC (tested in a mixture with another compound),T/C,"dose: 12.5 mg/kg/injection, schedule: Q01DX009 (ip), vehicle: other","131, 139, 141, 146, 149, 150 [5 of 6 alive], 151 % of control [5 of 6 alive]"
same,T/C,"dose: 12.5 mg/kg/injection, schedule: Q01DX009 (ip), vehicle: water",148 % of control
same,T/C,"dose: 12.5 mg/kg/injection, schedule: Q04DX003 (ip), vehicle: distilled water + Tween-80","118, 122, 122 [5 of 6 alive], 125, 126, 130, 131, 132 (2×), 134 (2×), 135, 136, 140, 141 % of control"
same,T/C,"dose: 12.5 mg/kg/injection, schedule: Q04DX003 (ip), vehicle: water","127, 136, 138 % of control"
same,T/C,"dose: 25.0 mg/kg/injection, schedule: Q01DX009 (ip), vehicle: other","123 [5 of 6 alive], 131, 144, 150, 152, 159, 168 % of control"
same,T/C,"dose: 25.0 mg/kg/injection, schedule: Q01DX009 (ip), vehicle: saline",144 % of control
same,T/C,"dose: 25.0 mg/kg/injection, schedule: Q04DX003 (ip), vehicle: distilled water + Tween-80","127, 130, 133, 138, 139, 140, 141 (2×), 142, 144, 145 (2×), 146, 147, 156 % of control"
same,T/C,"dose: 25.0 mg/kg/injection, schedule: Q04DX003 (ip), vehicle: water","135, 145, 147 % of control"
same,T/C,"dose: 50.0 mg/kg/injection, schedule: Q01DX009 (ip), vehicle: other","155, 160, 169, 170, 171, 197, 200 % of control"
same,survivor count,"dose: 50.0 mg/kg/injection, schedule: Q01DX009 (ip), vehicle: water",6 of 6
same,T/C,"dose: 50.0 mg/kg/injection, schedule: Q04DX003 (ip), vehicle: distilled water + Tween-80","136 [5 of 6 alive], 140, 141, 144 (2×), 145, 146 [5 of 6 alive], 152, 153, 158, 161, 165, 166, 172, 179 % of control"
same,T/C,"dose: 50.0 mg/kg/injection, schedule: Q04DX003 (ip), vehicle: saline",141 % of control
same,T/C,"dose: 50.0 mg/kg/injection, schedule: Q04DX003 (ip), vehicle: water",142 % of control
same,T/C,"dose: 64.0 mg/kg/injection, schedule: Q01DX009 (ip), vehicle: water",128 % of control
same,T/C,"dose: 72.0 mg/kg/injection, schedule: Q04DX003 (ip), vehicle: water",129 % of control
same,T/C,[10],"91, 136, 180, 188, 196 % of control"
same,survivor count,[10],5 of 6 and 6 of 6
same,survivor count,"dose: 100.0 mg/kg/injection, schedule: Q01DX009 (ip), vehicle: water",4 of 6 and 5 of 6
same,T/C,[11],"142, 150 (2×), 152, 152 [5 of 6 alive], 155, 163, 163 [5 of 6 alive], 167 (2×), 168, 173, 180, 198 % of control"
same,survivor count,[11],3 of 6
same,T/C,"dose: 100.0 mg/kg/injection, schedule: Q04DX003 (ip), vehicle: saline with Tween-80",145 % of control
same,T/C,"dose: 120.0 mg/kg/injection, schedule: Q04DX003 (ip), vehicle: water",140 % of control [7 of 8 alive]
same,survivor count,"dose: 150.0 mg/kg/injection, schedule: Q01DX009 (ip), vehicle: saline",0 of 6
same,survivor count,"dose: 200.0 mg/kg/injection, schedule: Q01DX009 (ip), vehicle: other","2 of 6, 4 of 6, 5 of 6, 6 of 6"
same,survivor count,"dose: 200.0 mg/kg/injection, schedule: Q01DX009 (ip), vehicle: saline",0 of 6
same,survivor count,"dose: 200.0 mg/kg/injection, schedule: Q01DX009 (ip), vehicle: water","2 of 6, 4 of 6, 5 of 6"
same,T/C,[12],"88, 92, 103 [5 of 6 alive], 106 [5 of 6 alive], 118, 153 [5 of 6 alive], 163 [5 of 6 alive], 169, 170, 172, 190, 215 % of control"
same,survivor count,[12],2 of 6 and 6 of 6
same,T/C,[13],101 and 121 % of control
same,survivor count,[13],7 of 8 and 6 of 6
same,survivor count,"dose: 400.0 mg/kg/injection, schedule: Q04DX003 (ip), vehicle: saline with Tween-80",1 of 6
same,survivor count,"dose: 400.0 mg/kg/injection, schedule: Q04DX003 (ip), vehicle: saline",0 of 6
same,survivor count,"dose: 800.0 mg/kg/injection, schedule: Q04DX003 (ip), vehicle: saline with Tween-80",1 of 6
O=C(N/N=C/c1cc(Br)cc(Br)c1[O-])c1ccccc1.O=C(N/N=C/c1cc(Br)cc(Br)c1[O-])c1ccccc1.[Cu+2],survivor count,"dose: 100.0 mg/kg/injection, schedule: Q01DX001 (ip), vehicle: saline with Tween-80",2 of 6
same,survivor count,"dose: 200.0 mg/kg/injection, schedule: Q01DX001 (ip), vehicle: saline with Tween-80",0 of 6
same,survivor count,"dose: 400.0 mg/kg/injection, schedule: Q01DX001 (ip), vehicle: saline with Tween-80",0 of 6
[CH3][Sn]([CH3])([CH3])[N](C#N)C(=Nc1ccccc1)NC#N,survivor count,[1],0 of 6
same,survivor count,[2],0 of 6
same,survivor count,[3],0 of 6
same,survivor count,"dose: 100.0 mg/kg/injection, schedule: Q04DX002 (ip), vehicle: Klucel (hydroxypropylcellulose) (HPC)",0 of 6
same,survivor count,"dose: 200.0 mg/kg/injection, schedule: Q04DX002 (ip), vehicle: Klucel (hydroxypropylcellulose) (HPC)",0 of 6
same,survivor count,"dose: 400.0 mg/kg/injection, schedule: Q04DX002 (ip), vehicle: Klucel (hydroxypropylcellulose) (HPC)",0 of 6
